From PMC6663880

Sequences of proteins named here, by UniProt entry; tags and fusion partners are left off. A change or cut given only in a name is not applied to a line headed by its entry.
UniProt O95292: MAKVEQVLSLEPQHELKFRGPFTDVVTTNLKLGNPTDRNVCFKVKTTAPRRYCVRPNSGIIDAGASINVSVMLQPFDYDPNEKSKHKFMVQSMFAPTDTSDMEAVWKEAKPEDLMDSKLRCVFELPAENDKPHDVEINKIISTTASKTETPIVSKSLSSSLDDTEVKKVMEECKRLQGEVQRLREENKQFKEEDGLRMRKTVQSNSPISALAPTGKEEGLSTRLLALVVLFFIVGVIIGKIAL
UniProt P05556: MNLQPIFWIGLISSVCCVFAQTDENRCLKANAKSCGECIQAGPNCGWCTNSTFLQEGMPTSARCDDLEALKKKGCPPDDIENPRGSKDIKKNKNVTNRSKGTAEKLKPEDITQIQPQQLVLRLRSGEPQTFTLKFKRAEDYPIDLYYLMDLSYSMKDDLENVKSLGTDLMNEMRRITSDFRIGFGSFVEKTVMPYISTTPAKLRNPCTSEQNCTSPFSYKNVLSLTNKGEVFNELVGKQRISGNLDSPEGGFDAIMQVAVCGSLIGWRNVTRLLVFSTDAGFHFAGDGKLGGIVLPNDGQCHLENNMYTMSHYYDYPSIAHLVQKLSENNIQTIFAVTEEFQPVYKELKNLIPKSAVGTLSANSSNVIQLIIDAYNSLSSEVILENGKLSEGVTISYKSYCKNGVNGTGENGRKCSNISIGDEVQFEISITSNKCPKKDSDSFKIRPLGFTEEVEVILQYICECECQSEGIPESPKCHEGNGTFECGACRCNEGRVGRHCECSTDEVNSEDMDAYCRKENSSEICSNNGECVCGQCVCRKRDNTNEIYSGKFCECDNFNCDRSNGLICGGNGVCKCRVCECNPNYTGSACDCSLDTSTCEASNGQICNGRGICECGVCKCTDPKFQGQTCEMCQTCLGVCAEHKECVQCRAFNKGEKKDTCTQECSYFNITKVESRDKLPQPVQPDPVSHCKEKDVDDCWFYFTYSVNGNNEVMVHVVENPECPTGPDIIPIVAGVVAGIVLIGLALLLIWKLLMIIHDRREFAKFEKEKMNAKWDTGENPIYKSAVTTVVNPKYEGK
UniProt P51648: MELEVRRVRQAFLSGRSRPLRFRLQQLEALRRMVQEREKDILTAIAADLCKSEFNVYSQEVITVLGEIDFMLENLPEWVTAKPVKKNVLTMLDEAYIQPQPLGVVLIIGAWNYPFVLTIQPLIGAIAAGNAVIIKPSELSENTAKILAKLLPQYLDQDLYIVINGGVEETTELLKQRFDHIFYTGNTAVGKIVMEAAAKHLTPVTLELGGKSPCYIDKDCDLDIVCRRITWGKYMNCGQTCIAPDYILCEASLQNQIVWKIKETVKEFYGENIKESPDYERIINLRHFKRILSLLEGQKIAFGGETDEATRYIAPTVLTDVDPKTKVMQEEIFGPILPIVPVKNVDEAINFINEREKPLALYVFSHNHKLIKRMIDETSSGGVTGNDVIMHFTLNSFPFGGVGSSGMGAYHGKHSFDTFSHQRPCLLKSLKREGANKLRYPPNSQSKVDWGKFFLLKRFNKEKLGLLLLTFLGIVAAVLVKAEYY

T1: RHBDL4mycBirA* (human) (UniProt Q8TEB9)
T1 sequence: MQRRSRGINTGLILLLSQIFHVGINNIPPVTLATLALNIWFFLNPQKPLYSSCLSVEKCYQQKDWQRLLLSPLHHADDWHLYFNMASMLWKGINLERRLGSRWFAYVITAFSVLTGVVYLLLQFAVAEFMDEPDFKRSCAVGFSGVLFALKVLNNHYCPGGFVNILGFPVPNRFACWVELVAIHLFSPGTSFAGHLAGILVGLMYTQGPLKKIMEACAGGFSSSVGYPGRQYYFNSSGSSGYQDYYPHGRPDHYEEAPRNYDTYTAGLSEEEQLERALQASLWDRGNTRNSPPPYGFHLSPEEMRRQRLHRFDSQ

T2: mycBirA*iRhom2 (human) (UniProt Q6PJF5)
T2 sequence: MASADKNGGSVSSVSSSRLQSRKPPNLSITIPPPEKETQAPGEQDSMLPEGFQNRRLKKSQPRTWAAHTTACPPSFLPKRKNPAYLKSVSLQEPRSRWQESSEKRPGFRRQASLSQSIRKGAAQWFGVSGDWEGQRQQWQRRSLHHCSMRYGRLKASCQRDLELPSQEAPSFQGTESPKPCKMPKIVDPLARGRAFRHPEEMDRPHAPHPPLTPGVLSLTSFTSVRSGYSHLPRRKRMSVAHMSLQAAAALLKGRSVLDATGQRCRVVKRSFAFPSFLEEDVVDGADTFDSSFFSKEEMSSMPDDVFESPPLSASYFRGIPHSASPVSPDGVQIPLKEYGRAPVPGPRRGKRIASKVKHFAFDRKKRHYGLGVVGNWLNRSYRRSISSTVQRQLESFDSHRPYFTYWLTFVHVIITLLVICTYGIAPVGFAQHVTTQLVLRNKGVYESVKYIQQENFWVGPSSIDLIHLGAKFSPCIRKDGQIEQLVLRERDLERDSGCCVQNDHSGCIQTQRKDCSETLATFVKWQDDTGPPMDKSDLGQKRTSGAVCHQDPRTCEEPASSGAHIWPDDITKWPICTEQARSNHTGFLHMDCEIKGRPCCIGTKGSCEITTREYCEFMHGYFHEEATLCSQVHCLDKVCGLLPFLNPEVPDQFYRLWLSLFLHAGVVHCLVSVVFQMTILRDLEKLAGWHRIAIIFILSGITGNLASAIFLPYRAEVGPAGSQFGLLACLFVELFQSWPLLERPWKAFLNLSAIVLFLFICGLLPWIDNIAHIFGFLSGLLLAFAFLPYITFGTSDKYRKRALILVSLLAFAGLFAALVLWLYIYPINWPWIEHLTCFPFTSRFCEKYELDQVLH


target: T1, RHBDL4mycBirA* (human); assay: proximity labelling; BioID: bait fused to mycBirA* stably expressed in HEK293 or HeLa cells, 50 μM biotin for 24 h, lysis in RIPA buffer, capture on streptavidin beads, MS; proteins found with mycBirA* alone excluded

Row | binding | Molecule
1 | binds | VAPB (from UniProt O95292 1-243)
2 | binds | ITGB1 (from UniProt P05556 21-798)
3 | binds | AL3A2 (from UniProt P51648 1-485)
4 | binds | STX5 (protein, UniProt Q13190 1-355) MIPRKRYGSKNTDQGVYLGLSKTQVLSPATAGSSSSDIAPLPPPVTLVPPPPDTMSCRDRTQEFLSACKSLQTRQNGIQTNKPALRAVRQRSEFTLMAKRIGKDLSNTFAKLEKLTILAKRKSLFDDKAVEIEELTYIIKQDINSLNKQIAQLQDFVRAKGSQSGRHLQTHSNTIVVSLQSKLASMSNDFKSVLEVRTENLKQQRSRREQFSRAPVSALPLAPNHLGGGAVVLGAESHASKDVAIDMMDSRTSQQLQLIDEQDSYIQSRADTMQNIESTIVELGSIFQQLAHMVKEQEETIQRIDENVLGAQLDVEAAHSEILKYFQSVTSNRWLMVKIFLILIVFFIIFVVFLA
5 | binds | PTP1B (protein-tyrosine phosphatase nonreceptor type 1) (enzyme, UniProt P18031 1-435) MEMEKEFEQIDKSGSWAAIYQDIRHEASDFPCRVAKLPKNKNRNRYRDVSPFDHSRIKLHQEDNDYINASLIKMEEAQRSYILTQGPLPNTCGHFWEMVWEQKSRGVVMLNRVMEKGSLKCAQYWPQKEEKEMIFEDTNLKLTLISEDIKSYYTVRQLELENLTTQETREILHFHYTTWPDFGVPESPASFLNFLFKVRESGSLSPEHGPVVVHCSAGIGRSGTFCLADTCLLLMDKRKDPSSVDIKKVLLEMRKFRMGLIQTADQLRFSYLAVIEGAKFIMGDSSVQDQWKELSHEDLEPPPEHIPPPPRPPKRILEPHNGKCREFFPNHQWVKEETQEDKDCPIKEEKGSPLNAAPYGIESMSQDTEVRSRVVGGSLRGAQAASPAKGEPSLPEKDEDHALSYWKPFLVNMCVATVLTAGAYLCYRFLFNSNT
6 | binds | TRIM13 (protein, UniProt O60858 1-407) MELLEEDLTCPICCSLFDDPRVLPCSHNFCKKCLEGILEGSVRNSLWRPAPFKCPTCRKETSATGINSLQVNYSLKGIVEKYNKIKISPKMPVCKGHLGQPLNIFCLTDMQLICGICATRGEHTKHVFCSIEDAYAQERDAFESLFQSFETWRRGDALSRLDTLETSKRKSLQLLTKDSDKVKEFFEKLQHTLDQKKNEILSDFETMKLAVMQAYDPEINKLNTILQEQRMAFNIAEAFKDVSEPIVFLQQMQEFREKIKVIKETPLPPSNLPASPLMKNFDTSQWEDIKLVDVDKLSLPQDTGTFISKIPWSFYKLFLLILLLGLVIVFGPTMFLEWSLFDDLATWKGCLSNFSSYLTKTADFIEQSVFYWEQVTDGFFIFNERFKNFTLVVLNNVAEFVCKYKLL
7 | binds | LAP2B (protein, UniProt P42167 1-454) MPEFLEDPSVLTKDKLKSELVANNVTLPAGEQRKDVYVQLYLQHLTARNRPPLPAGTNSKGPPDFSSDEEREPTPVLGSGAAAAGRSRAAVGRKATKKTDKPRQEDKDDLDVTELTNEDLLDQLVKYGVNPGPIVGTTRKLYEKKLLKLREQGTESRSSTPLPTISSSAENTRQNGSNDSDRYSDNEEDSKIELKLEKREPLKGRAKTPVTLKQRRVEHNQSYSQAGITETEWTSGSSKGGPLQALTRESTRGSRRTPRKRVETSEHFRIDGPVISESTPIAETIMASSNESLVVNRVTGNFKHASPILPITEFSDIPRRAPKKPLTRAEVGEKTEERRVERDILKEMFPYEASTPTGISASCRRPIKGAAGRPLELSDFRMEESFSSKYVPKYVPLADVKSEKTKKGRSIPVWIKILLFVVVAVFLFLVYQAMETNQVNPFSNFLHVDPRKSN
8 | binds | VCPIP1 (protein, UniProt Q96JH7 1-1222) MSQPPPPPPPLPPPPPPPEAPQTPSSLASAAASGGLLKRRDRRILSGSCPDPKCQARLFFPASGSVSIECTECGQRHEQQQLLGVEEVTDPDVVLHNLLRNALLGVTGAPKKNTELVKVMGLSNYHCKLLSPILARYGMDKQTGRAKLLRDMNQGELFDCALLGDRAFLIEPEHVNTVGYGKDRSGSLLYLHDTLEDIKRANKSQECLIPVHVDGDGHCLVHAVSRALVGRELFWHALRENLKQHFQQHLARYQALFHDFIDAAEWEDIINECDPLFVPPEGVPLGLRNIHIFGLANVLHRPIILLDSLSGMRSSGDYSATFLPGLIPAEKCTGKDGHLNKPICIAWSSSGRNHYIPLVGIKGAALPKLPMNLLPKAWGVPQDLIKKYIKLEEDGGCVIGGDRSLQDKYLLRLVAAMEEVFMDKHGIHPSLVADVHQYFYRRTGVIGVQPEEVTAAAKKAVMDNRLHKCLLCGALSELHVPPEWLAPGGKLYNLAKSTHGQLRTDKNYSFPLNNLVCSYDSVKDVLVPDYGMSNLTACNWCHGTSVRKVRGDGSIVYLDGDRTNSRSTGGKCGCGFKHFWDGKEYDNLPEAFPITLEWGGRVVRETVYWFQYESDSSLNSNVYDVAMKLVTKHFPGEFGSEILVQKVVHTILHQTAKKNPDDYTPVNIDGAHAQRVGDVQGQESESQLPTKIILTGQKTKTLHKEELNMSKTERTIQQNITEQASVMQKRKTEKLKQEQKGQPRTVSPSTIRDGPSSAPATPTKAPYSPTTSKEKKIRITTNDGRQSMVTLKSSTTFFELQESIAREFNIPPYLQCIRYGFPPKELMPPQAGMEKEPVPLQHGDRITIEILKSKAEGGQSAAAHSAHTVKQEDIAVTGKLSSKELQEQAEKEMYSLCLLATLMGEDVWSYAKGLPHMFQQGGVFYSIMKKTMGMADGKHCTFPHLPGKTFVYNASEDRLELCVDAAGHFPIGPDVEDLVKEAVSQVRAEATTRSRESSPSHGLLKLGSGGVVKKKSEQLHNVTAFQGKGHSLGTASGNPHLDPRARETSVVRKHNTGTDFSNSSTKTEPSVFTASSSNSELIRIAPGVVTMRDGRQLDPDLVEAQRKKLQEMVSSIQASMDRHLRDQSTEQSPSDLPQRKTEVVSSSAKSGSLQTGLPESFPLTGGTENLNTETTDGCVADALGAAFATRSKAQRGNSVEELEEMDSQDAEMTNTTEPMDHS
9 | binds | UBXN4 (protein, UniProt Q92575 1-508) MLWFQGAIPAAIATAKRSGAVFVVFVAGDDEQSTQMAASWEDDKVTEASSNSFVAIKIDTKSEACLQFSQIYPVVCVPSSFFIGDSGIPLEVIAGSVSADELVTRIHKVRQMHLLKSETSVANGSQSESSVSTPSASFEPNNTCENSQSRNAELCEIPPTSDTKSDTATGGESAGHATSSQEPSGCSDQRPAEDLNIRVERLTKKLEERREEKRKEEEQREIKKEIERRKTGKEMLDYKRKQEEELTKRMLEERNREKAEDRAARERIKQQIALDRAERAARFAKTKEEVEAAKAAALLAKQAEMEVKRESYARERSTVARIQFRLPDGSSFTNQFPSDAPLEEARQFAAQTVGNTYGNFSLATMFPRREFTKEDYKKKLLDLELAPSASVVLLPAGRPTASIVHSSSGDIWTLLGTVLYPFLAIWRLISNFLFSNPPPTQTSVRVTSSEPPNPASSSKSEKREPVRKRVLEKRGDDFKKEGKIYRLRTQDDGEDENNTWNGNSTQQM

target: T2, mycBirA*iRhom2 (human); assay: as above

Row | binding | Molecule
10 | binds | PTP1B (protein-tyrosine phosphatase nonreceptor type 1) (enzyme, UniProt P18031 1-435) MEMEKEFEQIDKSGSWAAIYQDIRHEASDFPCRVAKLPKNKNRNRYRDVSPFDHSRIKLHQEDNDYINASLIKMEEAQRSYILTQGPLPNTCGHFWEMVWEQKSRGVVMLNRVMEKGSLKCAQYWPQKEEKEMIFEDTNLKLTLISEDIKSYYTVRQLELENLTTQETREILHFHYTTWPDFGVPESPASFLNFLFKVRESGSLSPEHGPVVVHCSAGIGRSGTFCLADTCLLLMDKRKDPSSVDIKKVLLEMRKFRMGLIQTADQLRFSYLAVIEGAKFIMGDSSVQDQWKELSHEDLEPPPEHIPPPPRPPKRILEPHNGKCREFFPNHQWVKEETQEDKDCPIKEEKGSPLNAAPYGIESMSQDTEVRSRVVGGSLRGAQAASPAKGEPSLPEKDEDHALSYWKPFLVNMCVATVLTAGAYLCYRFLFNSNT

Results are given in words; binding and its absence hold for the method and conditions named. In cells and extracts the contact can be indirect. A yes stands for co-enrichment or nearness to the bait. Other partners may have been found. Where a sequence is shown, tags or fusion partners need not be part of it.
